The record followed here is doi:10.1101/2025.10.01.678329.

The chains behind the UniProt entries cited, without tags or fusion partners.
UniProt Q7Z2W4: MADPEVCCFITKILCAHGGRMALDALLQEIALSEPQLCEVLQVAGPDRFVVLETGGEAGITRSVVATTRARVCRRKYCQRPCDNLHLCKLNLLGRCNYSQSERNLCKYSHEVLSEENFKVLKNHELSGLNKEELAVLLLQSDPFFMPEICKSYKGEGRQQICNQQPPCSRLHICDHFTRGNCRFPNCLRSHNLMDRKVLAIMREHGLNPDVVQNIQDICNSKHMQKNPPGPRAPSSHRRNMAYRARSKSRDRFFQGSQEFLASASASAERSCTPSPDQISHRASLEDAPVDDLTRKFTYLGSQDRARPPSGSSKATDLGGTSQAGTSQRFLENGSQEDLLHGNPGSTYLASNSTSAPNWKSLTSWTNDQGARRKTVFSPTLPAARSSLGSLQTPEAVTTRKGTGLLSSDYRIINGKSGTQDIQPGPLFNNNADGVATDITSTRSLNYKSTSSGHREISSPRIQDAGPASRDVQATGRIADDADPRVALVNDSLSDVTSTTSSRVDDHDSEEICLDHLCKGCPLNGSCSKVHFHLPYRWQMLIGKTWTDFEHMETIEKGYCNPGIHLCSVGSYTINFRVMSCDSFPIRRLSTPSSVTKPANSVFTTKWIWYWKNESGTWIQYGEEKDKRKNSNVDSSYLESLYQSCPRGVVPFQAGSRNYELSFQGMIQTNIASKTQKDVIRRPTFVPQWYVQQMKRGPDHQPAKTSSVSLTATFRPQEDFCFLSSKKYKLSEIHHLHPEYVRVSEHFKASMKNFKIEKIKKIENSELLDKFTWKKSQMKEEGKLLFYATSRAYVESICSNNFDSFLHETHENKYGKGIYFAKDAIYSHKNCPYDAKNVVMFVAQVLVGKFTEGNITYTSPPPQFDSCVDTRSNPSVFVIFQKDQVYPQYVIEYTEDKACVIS

Read-outs that look alike come from different tables or passages of the source. These are yes or no findings as the source states them, for the method shown. In cells and extracts the contact can be indirect. Some entries that bind do so weakly or less than the wild type. For some of these results: Sequences can lack the tags named with a protein.

What all share (test): co-IP
Assay [1] has as its target ZAP-L-FLAG (human) (UniProt Q7Z2W4).
Assay [2] shares this target. The source holds these as a separate data set.
A further assay concerns the target T1, RIG-I-FLAG (human) (UniProt O95786).
T1 sequence: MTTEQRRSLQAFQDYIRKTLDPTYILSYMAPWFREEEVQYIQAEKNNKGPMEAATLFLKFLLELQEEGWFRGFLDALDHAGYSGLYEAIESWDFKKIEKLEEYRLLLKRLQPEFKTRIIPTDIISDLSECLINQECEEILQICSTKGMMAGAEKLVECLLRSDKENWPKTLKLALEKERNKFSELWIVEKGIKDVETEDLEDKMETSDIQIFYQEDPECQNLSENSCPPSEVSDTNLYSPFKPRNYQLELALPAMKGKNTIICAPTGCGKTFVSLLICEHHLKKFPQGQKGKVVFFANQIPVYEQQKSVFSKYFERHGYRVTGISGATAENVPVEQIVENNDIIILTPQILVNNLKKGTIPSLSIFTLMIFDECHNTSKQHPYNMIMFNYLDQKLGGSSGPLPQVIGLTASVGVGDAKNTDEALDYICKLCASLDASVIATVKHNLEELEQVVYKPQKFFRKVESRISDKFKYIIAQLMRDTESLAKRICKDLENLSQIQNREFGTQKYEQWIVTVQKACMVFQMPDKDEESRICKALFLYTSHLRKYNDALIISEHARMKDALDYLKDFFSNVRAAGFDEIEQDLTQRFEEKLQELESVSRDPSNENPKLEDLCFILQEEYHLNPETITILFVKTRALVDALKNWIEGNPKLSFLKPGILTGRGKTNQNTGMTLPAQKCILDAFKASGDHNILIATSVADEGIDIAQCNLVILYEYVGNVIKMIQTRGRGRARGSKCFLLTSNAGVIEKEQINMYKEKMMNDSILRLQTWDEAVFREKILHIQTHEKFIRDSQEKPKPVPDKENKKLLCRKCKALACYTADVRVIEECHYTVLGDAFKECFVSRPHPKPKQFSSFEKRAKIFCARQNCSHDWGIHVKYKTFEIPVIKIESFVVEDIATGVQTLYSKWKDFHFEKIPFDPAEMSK

Assay [3] has as its target T2, 2'-5'-oligoadenylate synthetase 2 (OAS2)-FLAG (human) (UniProt P29728).
T2 sequence: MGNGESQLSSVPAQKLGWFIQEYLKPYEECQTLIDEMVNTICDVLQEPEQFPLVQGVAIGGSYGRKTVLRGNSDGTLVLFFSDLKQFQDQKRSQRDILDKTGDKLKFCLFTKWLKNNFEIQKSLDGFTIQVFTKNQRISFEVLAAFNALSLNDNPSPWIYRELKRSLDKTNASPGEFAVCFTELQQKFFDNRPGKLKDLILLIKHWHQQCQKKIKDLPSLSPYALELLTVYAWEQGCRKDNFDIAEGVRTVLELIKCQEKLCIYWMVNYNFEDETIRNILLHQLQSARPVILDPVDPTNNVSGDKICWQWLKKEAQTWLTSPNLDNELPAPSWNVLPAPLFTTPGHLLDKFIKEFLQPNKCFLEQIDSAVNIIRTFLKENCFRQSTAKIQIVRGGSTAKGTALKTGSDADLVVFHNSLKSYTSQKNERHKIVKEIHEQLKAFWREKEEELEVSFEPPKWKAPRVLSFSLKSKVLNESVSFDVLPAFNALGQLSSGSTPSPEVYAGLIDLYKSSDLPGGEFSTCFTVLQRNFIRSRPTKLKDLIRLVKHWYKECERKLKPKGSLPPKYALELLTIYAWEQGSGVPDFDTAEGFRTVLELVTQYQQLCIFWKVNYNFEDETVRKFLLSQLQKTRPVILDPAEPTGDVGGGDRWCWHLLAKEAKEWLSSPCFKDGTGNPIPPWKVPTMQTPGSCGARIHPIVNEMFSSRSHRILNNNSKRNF

Assay [4] concerns the target T3, 2'-5'-oligoadenylate synthetase 1 (OAS1)-FLAG (human) (UniProt P00973).
T3 sequence: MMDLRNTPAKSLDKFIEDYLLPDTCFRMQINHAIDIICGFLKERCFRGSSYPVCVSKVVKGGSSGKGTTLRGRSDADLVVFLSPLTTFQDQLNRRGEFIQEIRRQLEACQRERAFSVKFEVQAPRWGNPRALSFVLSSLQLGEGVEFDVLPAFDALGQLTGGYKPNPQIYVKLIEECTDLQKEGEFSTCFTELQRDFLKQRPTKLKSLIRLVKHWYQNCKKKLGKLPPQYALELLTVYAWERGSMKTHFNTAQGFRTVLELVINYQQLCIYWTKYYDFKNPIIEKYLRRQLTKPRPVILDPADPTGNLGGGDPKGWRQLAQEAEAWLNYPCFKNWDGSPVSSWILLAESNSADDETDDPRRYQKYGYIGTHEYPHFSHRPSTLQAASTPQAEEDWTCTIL

Assay [5] addresses T4, mouse RIG-I (mouse (Mus musculus)) (UniProt Q6Q899).
T4 sequence: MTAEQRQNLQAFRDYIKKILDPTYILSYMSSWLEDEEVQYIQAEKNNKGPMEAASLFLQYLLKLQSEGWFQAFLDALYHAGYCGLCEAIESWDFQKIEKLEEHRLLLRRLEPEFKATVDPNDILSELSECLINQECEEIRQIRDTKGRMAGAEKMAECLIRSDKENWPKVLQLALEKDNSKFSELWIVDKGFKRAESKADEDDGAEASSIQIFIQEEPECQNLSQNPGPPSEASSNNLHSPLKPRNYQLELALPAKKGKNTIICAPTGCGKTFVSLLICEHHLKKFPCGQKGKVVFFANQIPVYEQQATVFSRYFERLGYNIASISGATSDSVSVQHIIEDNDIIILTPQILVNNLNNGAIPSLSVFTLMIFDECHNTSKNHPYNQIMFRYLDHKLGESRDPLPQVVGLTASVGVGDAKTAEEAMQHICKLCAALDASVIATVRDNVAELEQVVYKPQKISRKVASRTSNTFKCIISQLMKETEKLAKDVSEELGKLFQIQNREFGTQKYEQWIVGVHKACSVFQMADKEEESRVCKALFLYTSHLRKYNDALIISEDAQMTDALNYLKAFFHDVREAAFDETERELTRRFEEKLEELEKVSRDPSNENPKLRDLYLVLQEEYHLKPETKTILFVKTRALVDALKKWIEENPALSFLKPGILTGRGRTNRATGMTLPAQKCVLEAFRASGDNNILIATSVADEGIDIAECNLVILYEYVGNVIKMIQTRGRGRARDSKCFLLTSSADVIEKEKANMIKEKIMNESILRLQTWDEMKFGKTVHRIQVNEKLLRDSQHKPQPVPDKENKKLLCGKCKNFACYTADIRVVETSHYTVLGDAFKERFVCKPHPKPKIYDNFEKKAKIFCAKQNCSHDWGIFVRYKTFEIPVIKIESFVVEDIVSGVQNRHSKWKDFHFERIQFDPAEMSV

B1: Riplet-HA (enzyme, UniProt Q8IUD6 1-432)
chain: MAGLGLGSAVPVWLAEDDLGCIICQGLLDWPATLPCGHSFCRHCLEALWGARDARRWACPTCRQGAAQQPHLRKNTLLQDLADKYRRAAREIQAGSDPAHCPCPGSSSLSSAAARPRRRPELQRVAVEKSITEVAQELTELVEHLVDIVRSLQNQRPLSESGPDNELSILGKAFSSGVDLSMASPKLVTSDTAAGKIRDILHDLEEIQEKLQESVTWKEAPEAQMQGELLEAPSSSSCPLPDQSHPALRRASRFAQWAIHPTFNLKSLSCSLEVSKDSRTVTVSHRPQPYRWSCERFSTSQVLCSQALSSGKHYWEVDTRNCSHWAVGVASWEMSRDQVLGRTMDSCCVEWKGTSQLSAWHMVKETVLGSDRPGVVGIWLNLEEGKLAFYSVDNQEKLLYECTISASSPLYPAFWLYGLHPGNYLIIKQVKV
On to B1, for which the binding result in the assay with ZAP-L-FLAG (human) [1] is recorded as “no binding”; with ZAP-L-FLAG (human) [2] it was “no binding”; with RIG-I-FLAG (human), “binds”; in assay [3], “binds”.

B2: TRIM58 C57S C60S (enzyme, UniProt Q8NG06 1-486)
chain: MAWAPPGERLREDARCPVCLDFLQEPVSVDCGHSFCLRCISEFCEKSDGAQGGVYASPQSRGPFRPSGFRPNRQLAGLVESVRRLGLGAGPGARRCARHGEDLSRFCEEDEAALCWVCDAGPEHRTHRTAPLQEAAGSYQVKLQMALELMRKELEDALTQEANVGKKTVIWKEKVEMQRQRFRLEFEKHRGFLAQEEQRQLRRLEAEERATLQRLRESKSRLVQQSKALKELADELQERCQRPALGLLEGVRGVLSRSKAVTRLEAENIPMELKTACCIPGRRELLRKFQVDVKLDPATAHPSLLLTADLRSVQDGEPWRDVPNNPERFDTWPCILGLQSFSSGRHYWEVLVGEGAEWGLGVCQDTLPRKGETTPSPENGVWALWLLKGNEYMVLASPSVPLLQLESPRCIGIFLDYEAGEISFYNVTDGSYIYTFNQLFSGLLRPYFFICDATPLILPPTTIAGSGNWASRDHLDPASDVRDDHL
On to B2, for which the binding entry in assay [4] was “binds”.

B3: mouse Riplet (enzyme, UniProt Q9CWS1 1-417)
chain: MAAVCSGNAVPVWLSEDDLSCIICQGLLDQPTTLPCGHSFCLRCLHDLWVSKRGAVDGCPWACPICRKGPLTKPKLHKNPLLQDLVDKYLQAAREVEAGSEPEPAPAPRSAPQVTVQKSTTNVIQELTDMVRQLVDDVKSLQTQRPNLGSGQDNAQGTPPTDSSSEGEHSLDSPKLVTFSISQKKIQEILHNLEEIQEKLQGSVPGRAPPRERVQEMTSSLCLLPDQRRPAPRKASHLSLWAISPTFDLRTLSYNLEVSNNSRRVTVSRGDLHTYHWSPQRFSISQVFCSQALSSGQKYWEVDTRNCSHWAIGVASWGMKRDGMLGRTMDSWCIEWRGPGQFSAWAKMKKTDLQSDLPEVVGVWLDLESGELAFYAVADHERLLYECEVSSSSPLHPAFWLYGLSPGNYLEIKQLNT
For the molecule B3, the binding result in assay [5] is reported as “binds”.

B4: OASL (protein, UniProt Q15646 1-514)
chain: MALMQELYSTPASRLDSFVAQWLQPHREWKEEVLDAVRTVEEFLRQEHFQGKRGLDQDVRVLKVVKVGSFGNGTVLRSTREVELVAFLSCFHSFQEAAKHHKDVLRLIWKTMWQSQDLLDLGLEDLRMEQRVPDALVFTIQTRGTAEPITVTIVPAYRALGPSLPNSQPPPEVYVSLIKACGGPGNFCPSFSELQRNFVKHRPTKLKSLLRLVKHWYQQYVKARSPRANLPPLYALELLTIYAWEMGTEEDENFMLDEGFTTVMDLLLEYEVICIYWTKYYTLHNAIIEDCVRKQLKKERPIILDPADPTLNVAEGYRWDIVAQRASQCLKQDCCYDNRENPISSWNVKRARDIHLTVEQRGYPDFNLIVNPYEPIRKVKEKIRRTRGYSGLQRLSFQVPGSERQLLSSRCSLAKYGIFSHTHIYLLETIPSEIQVFVKNPDGGSYAYAINPNSFILGLKQQIEDQQGLPKKQQQLEFQGQVLQDWLGLGIYGIQDSDTLILSKKKGEALFPAS
As for B4, the binding entry with ZAP-L-FLAG (human) [2] is on record as “binds”.
